Laboratory results published in article PMC10589970.
Results are given in words; binding and its absence hold for the method and conditions named. Binding seen in cells or lysates may run through a third protein. Some results given as binding are weak or reduced against the parent protein; the word gives no strength.

By UniProt entry, the sequences of proteins in these tests, tags left out.
UniProt Q13546: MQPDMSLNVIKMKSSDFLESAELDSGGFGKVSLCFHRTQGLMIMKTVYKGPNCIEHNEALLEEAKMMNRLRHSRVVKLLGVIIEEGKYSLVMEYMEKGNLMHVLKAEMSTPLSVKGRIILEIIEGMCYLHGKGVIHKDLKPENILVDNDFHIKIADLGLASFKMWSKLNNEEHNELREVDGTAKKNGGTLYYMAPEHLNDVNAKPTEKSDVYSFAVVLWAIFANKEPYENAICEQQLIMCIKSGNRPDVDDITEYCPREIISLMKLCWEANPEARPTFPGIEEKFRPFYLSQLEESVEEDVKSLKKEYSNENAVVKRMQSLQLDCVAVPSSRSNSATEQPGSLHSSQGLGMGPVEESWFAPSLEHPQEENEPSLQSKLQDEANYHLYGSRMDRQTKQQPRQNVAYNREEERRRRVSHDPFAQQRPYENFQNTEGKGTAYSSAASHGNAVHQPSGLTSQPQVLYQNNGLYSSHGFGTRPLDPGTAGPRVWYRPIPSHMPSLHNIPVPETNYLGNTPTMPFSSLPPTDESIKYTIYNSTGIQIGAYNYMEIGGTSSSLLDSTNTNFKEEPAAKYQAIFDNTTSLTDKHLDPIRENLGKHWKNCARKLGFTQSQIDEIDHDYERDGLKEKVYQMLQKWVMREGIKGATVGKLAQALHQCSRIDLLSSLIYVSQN
UniProt Q13263: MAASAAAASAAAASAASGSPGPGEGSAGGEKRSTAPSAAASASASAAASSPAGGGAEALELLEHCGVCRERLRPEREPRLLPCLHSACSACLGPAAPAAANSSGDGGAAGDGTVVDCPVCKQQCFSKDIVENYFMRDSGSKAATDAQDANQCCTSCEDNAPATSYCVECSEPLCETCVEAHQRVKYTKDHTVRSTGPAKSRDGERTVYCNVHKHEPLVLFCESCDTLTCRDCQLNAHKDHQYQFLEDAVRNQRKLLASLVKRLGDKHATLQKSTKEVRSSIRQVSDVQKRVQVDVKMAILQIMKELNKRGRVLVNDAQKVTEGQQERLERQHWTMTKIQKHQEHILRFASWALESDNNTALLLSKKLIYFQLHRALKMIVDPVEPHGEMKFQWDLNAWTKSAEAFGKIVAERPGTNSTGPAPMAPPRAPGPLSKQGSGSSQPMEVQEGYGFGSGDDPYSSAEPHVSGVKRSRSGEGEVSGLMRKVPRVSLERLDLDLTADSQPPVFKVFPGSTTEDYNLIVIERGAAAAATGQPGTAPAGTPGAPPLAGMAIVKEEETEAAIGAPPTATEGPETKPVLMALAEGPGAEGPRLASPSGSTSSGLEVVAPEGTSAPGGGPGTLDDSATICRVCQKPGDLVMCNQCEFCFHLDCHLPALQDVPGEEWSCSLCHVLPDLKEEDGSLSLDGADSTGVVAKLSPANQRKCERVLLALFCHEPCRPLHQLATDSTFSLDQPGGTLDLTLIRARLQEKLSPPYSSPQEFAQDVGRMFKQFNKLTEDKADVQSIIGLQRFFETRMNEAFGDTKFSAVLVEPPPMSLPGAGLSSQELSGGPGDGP

What was measured:
[1] = molecular target: endogenous RIPK1 (H1299 cells) (human (endogenous in H1299)) (UniProt Q13546); test: co-IP; endogenous proteins in lysates of CMT-167 and H1299 cells; primary antibody overnight at 4 °C, Protein G beads, immunoblotting; which protein was precipitated is not told
HA-TRIM28 (human) = HA-TRIM28 (human) (UniProt Q13263); test: co-IP; Flag-RIPK1 and HA-TRIM28 co-transfected into HEK293T cells; immunoprecipitation with anti-Flag magnetic beads and blot for HA-TRIM28, and vice versa; cells lysed in RIPA buffer, 4 °C, washed three times with lysis buffer
Flag-RIPK1 (human) = Flag-RIPK1 (human) (UniProt Q13546); test: as above

## endogenous TRIM28 (H1299 cells) (from UniProt Q13263 1-835)
[1]
  binding: binds

## Flag-RIPK1 (from UniProt Q13546 1-671)
HA-TRIM28 (human)
  binding: binds

## HA-TRIM28 (from UniProt Q13263 1-835)
Flag-RIPK1 (human)
  binding: binds
